From patent publication US8410057B2, “Method of inducing T cell apoptosis by administering Altered Peptide Ligand” (Centro de Ingenieria Genetica y Biotecnologia, priority 2008, dated 2013)
Not every detail of the peptide structures is certain; ends, links or a residue may be inferred. Residues, ends and D or L forms follow the SMILES beside them.

Columns and labels:
Type in all cases: cell-based, human
[1] = test system: peripheral blood mononuclear cells from patients with active Crohn's disease; test: MTT viability of peripheral blood mononuclear cells from patients with active Crohn's disease; conditions: 10, 40 and 160 ug/mL, 72 hours, vs untreated cells, p<0.001, FIG. 1A
[2] = test system: mononuclear cells from healthy donors; test: MTT viability of peripheral blood mononuclear cells from healthy donors; conditions: 10, 40 and 160 ug/mL, 72 hours, FIG. 1B
[3] = test system: peripheral blood mononuclear cells from patients with active Crohn's disease; test: Transmission electron microscopy for apoptosis in peripheral blood mononuclear cells from Crohn's disease patients; conditions: 40 ug/mL, 72 hours
[4] = test system: Lamina propria mononuclear cells from Crohn's disease patients; test: Transmission electron microscopy for apoptosis in intestinal lamina propria mononuclear cells from Crohn's disease patients; conditions: 40 ug/mL, 72 hours; FIG. 3
[5] = test system: Peripheral blood mononuclear cells from a patient with inactive Crohn's disease; test: MTT viability of peripheral blood mononuclear cells from a patient with inactive Crohn's disease, with or without anti-CD3 activation
[6] = test system: Peripheral blood mononuclear cells from patients with diabetes mellitus type 1; test: Transmission electron microscopy for apoptosis in peripheral blood mononuclear cells from diabetes mellitus type 1 patients; conditions: 40 ug/mL, 72 hours; FIG. 5

Compound: CC[C@H](C)[C@H](NC(=O)[C@H](CC(N)=O)NC(=O)[C@H](CCCCN)NC(=O)[C@H](Cc1ccc(O)cc1)NC(=O)[C@H](CCCCN)NC(=O)[C@H](CC(=O)O)NC(=O)[C@H](CCCCN)NC(=O)[C@H](CC(C)C)NC(=O)[C@H](CC(=O)O)NC(=O)[C@@H](NC(=O)[C@@H](N)CO)[C@@H](C)CC)C(=O)NCC(=O)N[C@@H](C)C(=O)N[C@@H](CCCCN)C(=O)N[C@@H](CC(C)C)C(=O)N[C@H](C(=O)N[C@@H](CCC(N)=O)C(=O)N[C@@H](CC(C)C)C(=O)N[C@H](C(=O)N[C@@H](C)C(=O)N[C@@H](CC(N)=O)C(=O)N[C@@H](CC(N)=O)C(=O)N[C@H](C(=O)N[C@@H](CC(N)=O)C(=O)N[C@@H](CCC(=O)O)C(=O)N[C@@H](CCC(=O)O)C(=O)N[C@@H](C)C(=O)O)[C@@H](C)O)C(C)C)C(C)C [APL peptide] (H-SIDLKDKYKNIGAKLVQLVANNTNEEA-OH; N-terminus and C-terminus assumed)
- viability of peripheral blood mononuclear cells (MTT) [1]: significant reduce the viability
- viability of mononuclear cells (MTT) [2]: does not affect the viability
- cell population that falls into apoptosis (TEM morphology) [3]: lymphocytes are the population that falls into apoptosis
- cellular death mechanism (TEM morphology) ([3]; FIG. 2): mediated by apoptosis
- cellular death mechanism (TEM morphology) [4]: induces the death by apoptosis of a great part of this population
- viability of mononuclear cells (MTT), cells activated with anti-CD3 antibody ([5]; activated with anti-CD3 antibody 72 h, 10, 40 and 160 ug/mL, FIG. 4B): significantly reduced the viability
- viability of mononuclear cells (MTT), non-activated cells ([5]; without anti-CD3 antibody, 10, 40 and 160 ug/mL, FIG. 4A): does not reduce the viability
- apoptosis (TEM morphology) [6]: induces apoptosis
